Laboratory results reported in patent US20160369010A1.
Results are given in words; binding and its absence hold for the method and conditions named. Some results given as binding are weak or reduced against the parent protein; the word gives no strength.

By UniProt entry, the sequences of proteins in these tests, tags left out. Residues count along the entry.
UniProt Q8NBP7, residues 31-692: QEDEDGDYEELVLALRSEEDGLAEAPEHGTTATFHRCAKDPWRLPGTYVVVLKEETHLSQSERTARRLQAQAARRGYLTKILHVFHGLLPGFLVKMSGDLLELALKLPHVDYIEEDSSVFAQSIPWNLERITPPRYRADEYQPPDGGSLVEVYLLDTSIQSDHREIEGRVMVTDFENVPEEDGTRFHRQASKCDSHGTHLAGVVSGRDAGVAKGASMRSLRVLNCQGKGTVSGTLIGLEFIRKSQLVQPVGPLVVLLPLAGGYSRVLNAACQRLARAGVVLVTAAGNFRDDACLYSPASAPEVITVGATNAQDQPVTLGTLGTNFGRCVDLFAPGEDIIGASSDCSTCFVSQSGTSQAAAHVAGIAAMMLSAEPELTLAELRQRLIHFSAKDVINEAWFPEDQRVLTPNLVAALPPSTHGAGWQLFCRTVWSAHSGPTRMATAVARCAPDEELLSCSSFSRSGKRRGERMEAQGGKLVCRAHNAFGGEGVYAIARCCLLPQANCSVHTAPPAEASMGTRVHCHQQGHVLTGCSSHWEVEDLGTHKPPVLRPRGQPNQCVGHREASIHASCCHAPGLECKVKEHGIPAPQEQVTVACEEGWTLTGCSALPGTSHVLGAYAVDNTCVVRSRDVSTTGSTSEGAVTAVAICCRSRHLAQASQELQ

What was measured:
[1] = molecular target: Recombinant human Avi_PCSK9_Flag_His (human) (UniProt Q8NBP7); assay: ELISA on coated human PCSK9
[2] = molecular target: Recombinant human Avi_PCSK9_Flag_His (human) (UniProt Q8NBP7); assay: binding ELISA on coated human PCSK9 (10 ug/mL), compound at 100 ug/mL, detection with cryptate labelled Fc specific anti human IgG

binding [1]: binds
binding [2]: binds
B1: PC9#1_DSB7_V19A (antibody, IgG1)
VH: QVQLVQSGAEVKKPGASVKVSCKASGYTFTSYYMHWVRQAPGQGLEWMGEISPFGGRTNYNEKFKSRVTMTRDTSTSTVYMELSSLRSEDTAVYYCARERPLYASDLWGQGTTVTVSS
VL: HGEGTFTSDLSKQMEEECARLFIEWLKNGGPSSGAPPPGCGGGGGSGGGGSGGGGSADIQMTQSPSSLSASVGDRVTITCRASQGISSALAWYQQKPGKAPKLLIYSASYRYTGVPSRFSGSGSGTDFTFTISSLQPEDIATYYCQQRYSLWRTFGQGTKLEIK
